# Results as given in patent US7638508B2, “Glucocorticosteroid compound having anti-inflammatory activity” (Glaxo Group Limited, priority 2003, dated 2009).
# Some results were stated once for a whole list of compounds, not compound by compound.
# Key:
# glucocorticoid receptor [1] = target: T1, glucocorticoid receptor (Homo sapiens, UniProt P04150); test: NF-κB/ELAM promoter sPAP reporter assay in A549 cells, TNF stimulated (transrepressive activity of a glucocorticoid agonist); type: cell-based; design: A549 cells stably transfected with a reporter gene containing the NF-κB responsive elements; endogenous in cells; host or cells: A549 cells; conditions: compound 1 hour at 37° C., then TNF 10 ng/ml for 16 hours, read-out: EC50 (transrepression, NF-κB sPAP reporter)
# T1 sequence (P04150 1-777): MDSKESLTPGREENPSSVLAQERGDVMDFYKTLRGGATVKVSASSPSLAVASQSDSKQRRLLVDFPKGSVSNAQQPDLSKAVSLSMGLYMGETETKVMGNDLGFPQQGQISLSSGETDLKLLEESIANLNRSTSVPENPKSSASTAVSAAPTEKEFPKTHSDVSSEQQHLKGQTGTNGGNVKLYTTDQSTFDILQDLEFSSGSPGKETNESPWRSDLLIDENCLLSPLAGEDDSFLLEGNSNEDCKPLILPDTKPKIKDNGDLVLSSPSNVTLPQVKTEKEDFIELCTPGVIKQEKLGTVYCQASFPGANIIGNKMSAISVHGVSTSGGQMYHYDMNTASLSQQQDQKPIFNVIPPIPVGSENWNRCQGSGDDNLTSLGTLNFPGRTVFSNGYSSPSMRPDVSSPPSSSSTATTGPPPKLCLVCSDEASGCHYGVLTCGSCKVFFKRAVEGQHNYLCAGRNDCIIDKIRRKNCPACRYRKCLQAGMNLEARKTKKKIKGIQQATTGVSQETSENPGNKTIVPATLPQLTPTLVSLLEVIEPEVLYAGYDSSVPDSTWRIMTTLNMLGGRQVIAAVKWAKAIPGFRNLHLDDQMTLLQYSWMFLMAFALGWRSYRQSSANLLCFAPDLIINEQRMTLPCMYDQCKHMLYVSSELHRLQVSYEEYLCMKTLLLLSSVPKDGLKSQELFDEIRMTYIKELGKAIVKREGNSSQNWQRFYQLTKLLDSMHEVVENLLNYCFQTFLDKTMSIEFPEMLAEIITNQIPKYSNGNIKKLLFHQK
# Method: (§1) Pharmacological activity may be assessed in functional in vitro assays of glucocorticoid agonist activity.
# The functional assay based on that described by K. P. Ray et al., Biochem J. (1997), 328, 707-715 provides a measure of transrepressive activity of a glucocorticoid agonist. A549 cells stably transfected with a reporter gene containing the NF-κB responsive elements from the ELAM gene promoter coupled to sPAP (secreted alkaline phosphatase) are treated with test compounds at appropriate doses for 1 hour at 37° C. The cells are then stimulated with tumour necrosis factor (TNF, 10 ng/ml) for 16 hours, at which time the amount of alkaline phosphatase produced is measured by a standard colourimetric assay. Dose response curves are constructed from which EC50 values may be estimated.
# glucocorticoid receptor [2] = target: T1, glucocorticoid receptor; test: MMTV-LTR renilla luciferase reporter assay in A549 cells (direct transactivation of gene expression); type: cell-based; conditions: 6 hour at 37° C.
# Method: as §1
# The functional assay based on that described by R. J. H. Austin et al., Eur Resp J. (2002), 20, 1386-1392 measures the ability of compounds to directly transactivate gene expression. A549 cells stably transfected with a reporter gene containing the glucocorticoid responsive region of the mouse mammary tumour virus long terminal repeat (MMTV-LTR) coupled to renilla luciferase were treated with test compounds at appropriate doses for 6 hour at 37° C. The amount of luciferase activity present within the cells is then determined by measuring the light emitted following incubation with a suitable substrate.
Structure (SMILES),EC50 (glucocorticoid receptor [1]),maximal response relative to Dexamethasone (100%) (glucocorticoid receptor [2])
"CC1CC2C3CC(F)C4=CC(=O)C=CC4(C)C3(F)C(O)CC2(C)C1(OC(=O)c1ccc2ccccc2n1)C(=O)OCC#N (stereo not drawn) [Example 12, 6α,9α-Difluoro-11β-hydroxy-16α-methyl-3-oxo-17α-(quinoline-2-carbonyl)oxy-androsta-1,4-diene-17β-carboxylic Acid Cyanomethyl Ester]",< 10 nM,–
"CC1CC2C3CC(F)C4=CC(=O)C=CC4(C)C3(F)C(O)CC2(C)C1(OC(=O)c1ccc(C(F)(F)F)o1)C(=O)OCC#N (stereo not drawn) [Example 13, 6α,9α-Difluoro-11β-hydroxy-16α-methyl-3-oxo-17α-(5-trifluoromethyl-furan-2-carbonyl)oxy-androsta-1,4-diene-17β-carboxylic Acid Cyanomethyl Ester]",< 10 nM,< 20%
"C[C@@H]1C[C@H]2[C@@H]3C[C@H](F)C4=CC(=O)CC[C@]4(C)[C@@]3(F)[C@@H](O)C[C@]2(C)[C@@]1(OC(=O)C1C(C)(C)C1(C)C)C(=O)OCC#N [Example 18, 6α,9α-Difluoro-11β-hydroxy-16α-methyl-3-oxo-17α-(2,2,3,3-tetramethycyclopropylcarbonyl)oxy-androst-4-ene-17 b-carboxylic Acid Cyanomethyl Ester]",–,< 20%
"COc1c(C(=O)OC2(C(=O)OCC#N)C(C)CC3C4CC(F)C5=CC(=O)C=CC5(C)C4(F)C(O)CC32C)csc1Cl (stereo not drawn) [Example 19, 17α-(5-Chloro-4-methoxy-thiophene-3-carbonyl)oxy-6α,9α-difluoro-11β-hydroxy-16α-methyl-3-oxo-androsta-1,4-diene-17β-carboxylic Acid Cyanomethyl Ester]",–,< 20%
"C[C@@H]1C[C@H]2[C@@H]3C[C@H](F)C4=CC(=O)C=C[C@]4(C)[C@@]3(F)[C@@H](O)C[C@]2(C)[C@@]1(OC(=O)C1C(C)(C)C1(Cl)Cl)C(=O)OCC#N (stereo partly drawn) [Example 20, 17α-(2,2-Dichloro-3,3-dimethylclopropylcarbonyl)oxy-6α,9α-difluoro-11β-hydroxy-16α-methyl-3-oxo-androsta-1,4-diene-17β-carboxylic Acid Cyanomethyl Ester]",–,< 20%
"CC1CC2C3CC(F)C4=CC(=O)C=CC4(C)C3(F)C(O)CC2(C)C1(OC(=O)C1C(C)(C)C1(Cl)Cl)C(=O)SCC#N (stereo not drawn) [Example 21, 17α-(22-Dichloro-3,3-dimethylclopropylcarbonyl)oxy-6α,9α-difluoro-11β-hydroxy-16α-methyl-3-oxo-androsta-1,4-diene-17β-carbothioic acid S-cyanomethyl Ester]",–,< 20%
"CC1CC2C3CC(F)C4=CC(=O)C=CC4(C)C3(F)C(O)CC2(C)C1(OC(=O)C1CCCCC1)C(=O)SCC#N (stereo not drawn) [Example 22, 17α-(Cyclohexylcarbonyl)oxy-6α,9α-difluoro-1,1-hydroxy-16α-methyl-3-oxo-androsta-1,4-diene-17β-carbothioic Acid S-cyanomethyl Ester]",–,< 20%
"C[C@@H]1C[C@H]2[C@@H]3C[C@H](F)C4=CC(=O)C=C[C@]4(C)[C@@]3(F)[C@@H](O)C[C@]2(C)[C@@]1(OC(=O)c1ccc(S(C)(=O)=O)s1)C(=O)SCC#N [Example 23, 6α,9α-Difluoro-11β-hydroxy-16α-methyl-17α-(5-methylsulphonyl-thiophene-2-carbonyl)oxy-3-oxo-androsta-1,4-diene-17β-carbothioic Acid S-cyanomethyl Ester]",< 10 nM,< 20%
"C[C@@H]1C[C@H]2[C@@H]3C[C@H](F)C4=CC(=O)C=C[C@]4(C)[C@@]3(F)[C@@H](O)C[C@]2(C)[C@@]1(OC(=O)c1ccc(C(F)(F)F)o1)C(=O)SCC#N [Example 24, 6α,9α-Difluoro-11β-hydroxy-16α-methyl-3-oxo-17α-(5-trifluoromethyl-furan-2-carbonyl)oxy-androsta-1,4-diene-17β-carbothioic Acid S-cyanomethyl Ester]",< 10 nM,< 20%
"C[C@@H]1C[C@H]2[C@@H]3C[C@H](F)C4=CC(=O)C=C[C@]4(C)[C@@]3(F)[C@@H](O)C[C@]2(C)[C@@]1(OC(=O)c1cccc(SC(F)F)c1)C(=O)SCC#N [Example 25, 6α,9α-Difluoro-17α-(3-(difluoromethylthio)benzoyl)oxy-11β-hydroxy-16α-methyl-3-oxo-androsta-1,4-diene-17β-carbothioic Acid S-cyanomethyl Ester]",–,< 20%
